This is one part of the list. The main result of the screen is listed elsewhere. These columns were measured beside it and carry no call. Most of these compounds were active or inconclusive in the main read-out, so they are no random draw. The note in brackets gives the kind of curve behind each potency; many fits are weak.
Assay: qHTS Assay for Lipid Storage Modulators in Drosophila S3 Cells;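 for cell number change: cells counted by Cell Tracker Red CMTPX staining in the red channel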
Conditions: BODIPY lipid droplet fluorescence, 18-24 h; for cell number change: measured here: cell count max response, cells fed with added oleic acid
Summary of the method: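 Laser-scanning cytometry quantifies lipid droplet accumulation (500–530 nm total intensity; droplet/cell object ratio) in oleic acid-fed (400 uM added) Drosophila S3 cells treated with a concentration series. 20 uM Triacsin C defined 100% inhibition.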

[1] = measured here: lipid fluorescence (Fed channel) AC50, cells fed with added oleic acid
[2] = measured here: cell number channel AC50, cells fed with added oleic acid

Q: With `Cc1ccc(N2CC3=C(C2=O)C(c2ccccc2)NC(=O)N3C)cc1` (configuration not stated) as the compound, how does the cell number change read?
A: -1.93%

Q: Which cell number change does the source give for `CCOCCn1c(CN2CCc3ccccc3C2)nc2c1c(=O)n(C)c(=O)n2C` here?
A: -27.5%

Q: What about the AC50 [1] of the same compound?
A: 29.1 µM [falling, single point]

Q: For `Cc1cccc2sc(NNC(=O)c3ccc(S(=O)(=O)N4CC(C)CC(C)C4)cc3)nc12` (configuration not stated), which cell number change is on record?
A: -19.1%

Q: And the AC50 [1]?
A: 29.1 µM [falling, single point]

Q: For `O=C(O)CSCC(=O)N1CCc2c([nH]c3ccccc23)C1C(F)(F)F` (configuration not stated), which cell number change is on record?
A: 13.3%

Q: What about the AC50 [1] of the same compound?
A: 25.9 µM [rising, single point]

Q: Which results are given for `COCC(O)CSc1nc(C)[nH]c1[N+](=O)[O-]` (configuration not stated)?
A: cell number change: -70.6%; AC50 [2]: 16.4 µM [falling, single point]

Q: What does the source list for `Cn1cccc1/C=C1\SC(=S)N(NC(=O)c2ccccc2O)C1=O`?
A: cell number change: -48.3%; AC50 [2]: 32.6 µM [falling, partial curve, poor fit]; AC50 [1]: 7.31 µM [falling, partial curve]

Q: With `Cc1nc(NC(=O)C23CCC(C)(C(=O)O2)C3(C)C)sc1C` (configuration not stated) as the compound, how does the cell number change read?
A: 16%

Q: With `Fc1cc(F)cc(NC(=S)NN2CCOCC2)c1` as the compound, how does the cell number change read?
A: -32.7%

Q: What about the AC50 [2] of the same compound?
A: 32.6 µM [falling, single point]

Q: And the AC50 [1]?
A: 13 µM [falling, partial curve, poor fit]

Q: Which results are given for `Cc1cc(OC(=O)c2cc(Cl)nc3ccccc23)ccc1Cl`?
A: cell number change: -51.5%; AC50 [2]: 20.6 µM [falling, single point]

Q: Which AC50 [2] does the source give for `CCOc1ccc(-c2cc(CCCC(=O)NCCc3ccccc3)no2)cc1` here?
A: 2.31 µM [rising, partial curve]

Q: What about the AC50 [1] of the same compound?
A: 4.11 µM [rising, partial curve]

Q: With `COc1ccc(CCNC(=O)CN2C(=O)C3(OCCCO3)c3ccccc32)cc1OC` as the compound, how does the cell number change read?
A: -11.7%

Q: And the AC50 [1]?
A: 29.1 µM [falling, single point]

Q: Which results are given for `COC(=O)C1=CN(Cc2ccc(OC)cc2)C=C(C(=O)OC)C1c1ccsc1`?
A: cell number change: -30.3%; AC50 [2]: 32.6 µM [falling, partial curve, poor fit]

Q: With `CCCc1sc(N)nc1-c1ccc(C)cc1` as the compound, how does the cell number change read?
A: -46.5%

Q: And the AC50 [2]?
A: 29.1 µM [falling, single point]

Q: What about the AC50 [1] of the same compound?
A: 6.51 µM [rising, single point]

Q: With `CCn1cc(C(=O)NCc2ccco2)c(=O)c2ccc(C)nc21` as the compound, how does the AC50 [2] read?
A: 1.3 µM [rising, partial curve]

Q: What about the AC50 [1] of the same compound?
A: 6.51 µM [rising, single point]

Q: What does the source list for `COc1cc(OC)cc(C(=O)OC/C(O)=C(\C#N)c2nc3ccccc3[nH]2)c1`?
A: cell number change: -34.9%; AC50 [2]: 16.4 µM [falling, partial curve]; AC50 [1]: 32.6 µM [falling, partial curve]

Q: Which cell number change does the source give for `O=C(CCCOc1ccc(Cl)cc1Cl)N/N=C\C1CCCCC1` here?
A: -20.4%

Q: What about the AC50 [2] of the same compound?
A: 0.82 µM [rising, single point]

Q: And the AC50 [1]?
A: 2.91 µM [rising, single point]

Q: With `Clc1ccccc1-c1ncc(-c2ccccc2)o1` as the compound, how does the cell number change read?
A: -12.6%

Q: And the AC50 [1]?
A: 18.4 µM [falling, single point]

Q: Which cell number change does the source give for `CCCN(CC(=O)Nc1ccccc1C)C(=O)c1ccc(N2CCCCCC2)c([N+](=O)[O-])c1` here?
A: -39.3%

Q: And the AC50 [2]?
A: 10 µM [falling, partial curve]

Q: What about the AC50 [1] of the same compound?
A: 10 µM [falling, partial curve]

Q: Which results are given for `CCc1ccccc1-n1c(SCC(=O)Nc2ccc3c(c2)OCCO3)nc2[nH]ncc2c1=O`?
A: cell number change: -14.8%; AC50 [2]: 0.082 µM [falling, full curve, poor fit]; AC50 [1]: 0.231 µM [rising, full curve]

Q: For `O=C1[C@H]2[C@H](ON3CCCC[C@H]23)C(=O)N1c1cccc(C(F)(F)F)c1`, which cell number change is on record?
A: -31.4%

Q: Which results are given for `CC12COC3(C(=O)Nc4ccc([N+](=O)[O-])cc4)CC1CCC32C` (configuration not stated)?
A: cell number change: -31.5%; AC50 [2]: 20.6 µM [falling, single point]; AC50 [1]: 0.517 µM [falling, partial curve, poor fit]

Q: Which results are given for `Cc1ccc(C)c(OCC(=O)NC(Cc2c[nH]c3ccccc23)C(=O)O)c1` (configuration not stated)?
A: cell number change: 20.3%; AC50 [1]: 0.411 µM [falling, single point]

Q: Which results are given for `O=C(Cn1cnc2sc3c(c2c1=O)CCCC3)NCC(=O)Nc1ccc(F)cc1F`?
A: cell number change: 18.2%; AC50 [1]: 23.1 µM [rising, partial curve]

Q: For `CCCCS(=O)(=O)c1sc2nc3c(cc2c1N)CCCC3`, which cell number change is on record?
A: -19.6%

Q: And the AC50 [1]?
A: 4.11 µM [rising, partial curve]

Q: Which cell number change does the source give for `COc1ccc(-c2nc(CSCC(=O)NCc3ccc4c(c3)OCO4)c(C)o2)cc1OC` here?
A: -15.6%

Q: With `Cn1c(SCc2ccc(Cl)cc2)nc(C(F)(F)F)cc1=O` as the compound, how does the cell number change read?
A: 0.636%

Q: And the AC50 [1]?
A: 29.1 µM [rising, partial curve, poor fit]

Q: Which cell number change does the source give for `Cc1ccc(-n2c(SCC(=O)Nc3ccc4c(c3)OCO4)nnc2-c2ccoc2C)cc1` here?
A: 4.04%

Q: What about the AC50 [2] of the same compound?
A: 0.116 µM [rising, full curve, poor fit]

Q: And the AC50 [1]?
A: 0.103 µM [rising, full curve]

Q: With `O=c1cc2c(nn1Cc1ccccc1Cl)-c1ccccc1CC2` as the compound, how does the cell number change read?
A: 9.06%

Q: What about the AC50 [1] of the same compound?
A: 7.31 µM [rising, partial curve]

Q: What does the source list for `Cc1ccc2nc(-c3ccc(NC(=O)CNC4CC4)cc3)sc2c1`?
A: cell number change: 28.2%; AC50 [1]: 18.4 µM [rising, single point]

Q: For `Cc1onc(-c2ccccc2)c1C(=O)Nc1nncs1`, which cell number change is on record?
A: 1.26%

Q: What does the source list for `CCOc1ccc(-c2cn3ccccc3n2)cc1`?
A: cell number change: -39.8%; AC50 [2]: 5.8 µM [falling, full curve]; AC50 [1]: 29.1 µM [falling, partial curve, poor fit]

Q: For `CC(=O)c1ccc(-n2nncc2-c2ccc([N+](=O)[O-])cc2)cc1`, which cell number change is on record?
A: 66.6%

Q: And the AC50 [2]?
A: 29.1 µM [rising, partial curve, poor fit]

Q: And the AC50 [1]?
A: 29.1 µM [rising, partial curve, poor fit]

Q: Which cell number change does the source give for `O=C1CCCCC1Sc1nnc(Cc2cccs2)n1CCc1ccccc1` (configuration not stated) here?
A: 32.1%

Q: What about the AC50 [2] of the same compound?
A: 0.206 µM [rising, partial curve]

Q: What about the AC50 [1] of the same compound?
A: 8.2 µM [rising, partial curve, poor fit]

Q: Which cell number change does the source give for `CC(=O)c1c(C)[nH]c(C(=O)Nc2ccc(Cl)cc2)c1C` here?
A: 10.8%

Q: And the AC50 [1]?
A: 0.082 µM [rising, partial curve, poor fit]

Q: Which results are given for `Cc1ccc(NC(=O)/C(C#N)=C/c2ccc(Sc3nc(C)cc(C)n3)o2)cc1`?
A: cell number change: 41.8%; AC50 [2]: 9.2 µM [rising, partial curve, poor fit]

From PubChem BioAssay AID2685 (National Center for Advancing Translational Sciences (NCATS), 2010)
